# Library screen at single concentrations

Chains of the proteins cited; added tags and fusions are not shown.
UniProt P9WFT3, whole entry: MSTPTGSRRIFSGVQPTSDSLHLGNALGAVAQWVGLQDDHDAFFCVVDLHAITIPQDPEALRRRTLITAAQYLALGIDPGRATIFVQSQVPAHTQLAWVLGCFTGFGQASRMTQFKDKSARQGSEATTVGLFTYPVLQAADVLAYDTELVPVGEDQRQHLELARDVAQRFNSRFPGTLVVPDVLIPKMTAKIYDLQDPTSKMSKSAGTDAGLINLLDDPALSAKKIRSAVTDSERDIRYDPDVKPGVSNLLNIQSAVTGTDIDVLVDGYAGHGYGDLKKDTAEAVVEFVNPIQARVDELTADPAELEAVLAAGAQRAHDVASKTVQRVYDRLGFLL
UniProt P9WNZ1, whole entry: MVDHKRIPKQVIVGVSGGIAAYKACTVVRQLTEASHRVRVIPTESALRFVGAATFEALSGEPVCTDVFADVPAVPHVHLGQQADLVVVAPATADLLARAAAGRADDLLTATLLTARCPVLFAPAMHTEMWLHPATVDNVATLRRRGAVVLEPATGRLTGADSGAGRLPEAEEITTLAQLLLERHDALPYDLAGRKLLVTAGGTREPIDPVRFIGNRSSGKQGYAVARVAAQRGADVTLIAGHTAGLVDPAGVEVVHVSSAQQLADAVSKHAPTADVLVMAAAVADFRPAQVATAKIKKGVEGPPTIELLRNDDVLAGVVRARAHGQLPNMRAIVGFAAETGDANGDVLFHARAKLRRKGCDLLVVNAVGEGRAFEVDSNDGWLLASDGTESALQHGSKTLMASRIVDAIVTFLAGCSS

The values are deposited in ChEMBL (CHEMBL3988442, “University of Dundee, Small-Polar-MMV Screening Library” (2021)).

Each number is a percent effect as filed.
How 0% and 100% were set is not recorded. Most values in the screen are low, and negative values occur.
Compounds were drawn at random from those tested, without regard to their results.
Two or more numbers in one place are separate tests of the same structure; such repeats can differ widely.
A dash means the value is not listed here; it may have been measured.

MtTrpRS: 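Tryptophan-tRNA ligase, Mycobacterium tuberculosis (UniProt P9WFT3). Enzyme assay of tryptophanyl-tRNA synthetase; the read-out is not stated. Tested at 10 µM. Higher most likely means stronger inhibition; the record gives no direction and few retests gave an IC50. Size under these conditions: about 65,000 compounds, about 64 of them at 50% or above in at least one test.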
CoaBC: 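Coenzyme A biosynthesis protein CoaBC, Mycobacterium tuberculosis (UniProt P9WNZ1). Enzyme assay of CoaBC with a phosphate dye (Biomol Green) read at 650 nm. Tested at 30 µM. Higher reads as stronger inhibition, judged from the few compounds that gave an IC50. Most strong results did not repeat in a second test. Of about 67,000 compounds tested this way, about 40 (0.06%) reached 50% or more in at least one test.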

compound	MtTrpRS	CoaBC
N#CCCN(Cc1cccnc1)C(=O)c1ccc(-n2cnnn2)cc1	-0.1271	0.7937
CC(C(=O)NCc1ccc(N2CCCCC2)nc1)S(C)(=O)=O (centres unmarked)	-4.096	0.3492
CCc1noc(CCC(=O)N2CCC(c3ccn[nH]3)C2)n1 (centres unmarked)	8.203	-0.4785
O=C(NCc1ccccn1)C1=NN(c2ccccc2)C(=O)CN1	-2.178	-2.362
Cc1nc(NC(=O)C2CCCN(C(N)=O)C2)sc1-c1ccccc1 (centres unmarked)	9.784	11.51
O=C(Cc1cccc(F)c1)N1CCc2ncnc(NC3CCC3)c2CC1	-	4.938
CCOC(=O)CNC(=O)Cn1c(-c2ccoc2)nc(C)c1C	-	2.67
CNC(=O)CS(=O)(=O)Cc1cc(Cl)c2c(c1)OCCO2	-3.209	-1.05
CC(C)(C(=O)NCC(=O)NCc1ccccc1)c1ccccc1F	-2.581	2.87
Cc1nnn2c1COC(CNC(=O)c1cccn1C)C2 (centres unmarked)	-4.01	9.664
CCn1ccc(-c2nnc(SCC(=O)Nc3ccc(C)cc3)n2CC)n1	-3.181	-0.8949
CCc1cnc(N)nc1NCCN1CCCCC1	5.717	12.73
Cc1cnc(CN2C[C@H]3C[C@H](Oc4ccccc4)C[C@H]3C2)cn1	39.06	0.618
O=C(NCCNc1ncccn1)C1CC(=O)N(Cc2ccccc2)C1 (centres unmarked)	-2.401	4.54
COc1ccc(OC2CCN(C(=O)C(C)Cn3cccn3)CC2)cc1 (centres unmarked)	-4.497	-0.4274
Cc1ccc(C(=O)NCCC2CN(C3CCCC3)CCO2)c(C)c1 (centres unmarked)	2.574	3.236
O=C(NCCc1ccccn1)[C@@H]1CC[C@@H]2[C@@H](CCN2Cc2ccoc2)O1	0.4537	-3.951
Cc1ccccc1N1CCN(C(=O)CCc2nncn2C)C(C)C1 (centres unmarked)	4.762	1.887
Cc1ccccc1N1CCCN(C(=O)CCc2cccnc2)CC1	-0.6054	1.815
CCC[C@H]1CN(C2CCOCC2)C[C@@H]1NC(=O)CCCn1ccnc1	-3.199	-2.581
O=C(c1cccnc1N1CCOC(c2ccc(F)cc2)C1)N1CCCC1 (centres unmarked)	-2.407	5.934
CC(=O)N(C)C1CCN(C(=O)NCC(C)Cc2cccs2)CC1 (centres unmarked)	-5.853	-0.2016
Cc1cc(N2CCCC2c2nccnc2C)ncn1 (centres unmarked)	-	4.833
Cc1ccc(CN2C[C@@H]3[C@@H](C(=O)NCC(C)C)CCS(=O)(=O)[C@@H]3C2)cc1	3.176	-7.654
CCC(C)N(Cc1cccnc1)Cc1ccc2c(c1)OCCO2 (centres unmarked)	-5.55	-2.008
Cn1c(=O)c2cc(C(=O)NCCc3ccccc3)ccc2n(C)c1=O	-	-3.067
O=C(c1ccoc1)N1CC[C@H]2OCC[C@@]2(COc2ncccc2F)C1	4.526	5.286
CNC(=O)C1(c2cnccn2)CCCN1C(=O)c1ccccc1F (centres unmarked)	-	-2.451
COCCC1(CNC(=O)NCC2CCCN(C)C2)CCC1 (centres unmarked)	-1.72	3.64
CS(=O)(=O)N1C[C@@H]2CC[C@H](C1)N(C(=O)Cn1nc3ccccc3n1)C2	2.034	1.944
COc1c(C2CCCN2C(=O)c2ccco2)c(C)nn1C (centres unmarked)	-1.018	-1.467
Cc1nnc(N2CCCC2)c(C(N)=O)c1C	1.354	-4.878
O=C(O)C1CCN(c2ccc(Sc3ccc(Br)cc3)nn2)CC1	1.183	-0.1255
Cc1nnsc1CN1C[C@@H]2CC[C@H](C1)N(Cc1c(C)noc1C)C2=O	-0.4617	4.142
Cc1cnc(C(=O)N2CCCC3(CCN(c4cnn(C)c4)C3=O)C2)cn1 (centres unmarked)	0	-0.3699
c1cncc(CN2CCN3C[C@H](Oc4cncnc4)C[C@H]3C2)c1	-	1.733
Cc1nn(C)c(C)c1C(=O)NN1CCOCC1	2.546	3.061
Cc1csc(CN(CC2CCCO2)C(=O)c2cccnc2C)n1 (centres unmarked)	3.425	1.442
CC(C)N1CCC(CC(=O)NC(C(=O)O)c2cccc(F)c2)CC1 (centres unmarked)	-1.458	10.32
CC(C)C(NC(=O)NCc1cccnc1N(C)C)c1cccs1 (centres unmarked)	4.438	6.65
O=C1CC(c2ccc(C(F)(F)F)cc2)c2c(n3ccsc3nc2=O)N1 (centres unmarked)	-0.7703	4.04
O=C(NCc1ccc(F)cc1)NCC1(N2CCOCC2)CCSC1 (centres unmarked)	5.203	-1.282
NC(=O)COc1cccc(CN2CCc3cncnc3C2)c1	-4.427	3.316
CN1CCC(c2nnc(CN3CCCCC3)n2C)CC1	-1.088	-0.1266
CC(C)C(NC(=O)NCCNc1cnccn1)c1cccs1 (centres unmarked)	0.09737	-2.452
NCC(=O)N1CCC2(CC1)CN(C(=O)Cc1ccc(Cl)cc1)CCO2	-6.655	4.737
Cc1nn(C)c2c(=O)n(CC(=O)NCCN3CCCCCC3)ccc12	0.311	6.416
CCCn1nc(C2CCNCC2)n(Cc2ccccc2)c1=O	3.173	8.316
O=C(CN1C(=O)CCNC1=O)N1CCOC(c2ccc(Cl)c(Cl)c2)C1 (centres unmarked)	-0.7498	10.2
Cc1nc2sccn2c1CNc1ccc(C(=O)O)cc1	1.433	15.54
CC(C)N(CC(C)(C)O)C(=O)NC1CC1	1.214	27.34 and 5.67
CCCOCC1CCN(C(=O)c2cnc(-c3csc(C)n3)nc2O)C1 (centres unmarked)	-0.161	14.07
Cc1ncsc1CN1CCOC(C)(C(=O)N2CCOCC2)C1 (centres unmarked)	-2.649	3.325
Cc1ccc(=O)n(CC2(O)CCN(Cc3cnn(C)c3)CC2)n1	-	-1.471
COc1cc(Br)c(S(=O)(=O)NC(=O)C(C)OC)cc1OC (centres unmarked)	0.2463	-3.563
CCC(NC(=O)c1cnc(N(C)C)nc1C)c1ccc(S(C)(=O)=O)cc1 (centres unmarked)	0.5757	6.258
CCOc1ccccc1CNC(=O)N(CC)C(C)c1cccnc1 (centres unmarked)	-2.342	1.599
CC(Cn1ccnc1)NC1CCN(Cc2cccc(O)c2)CC1 (centres unmarked)	4.446	0
O=C(c1cc(-c2cn[nH]c2)nc2ccc(F)cc12)N1CCSCC1	-3.15	2.801
Cc1csc(C2CCCN(C(=O)c3cc(Cl)c[nH]3)C2)n1 (centres unmarked)	2.426	5.101
Cc1ccc(-c2ccc(C(=O)NCCS(N)(=O)=O)c(F)c2)cc1	2.434	5.238

Some entries from above, unchanged:

compound,MtTrpRS,CoaBC
Cc1nn(C)c2c(=O)n(CC(=O)NCCN3CCCCCC3)ccc12,0.311,6.416
NC(=O)COc1cccc(CN2CCc3cncnc3C2)c1,-4.427,3.316
O=C(NCCc1ccccn1)[C@@H]1CC[C@@H]2[C@@H](CCN2Cc2ccoc2)O1,0.4537,-3.951
Cc1ccc(C(=O)NCCC2CN(C3CCCC3)CCO2)c(C)c1 (centres unmarked),2.574,3.236
Cc1csc(C2CCCN(C(=O)c3cc(Cl)c[nH]3)C2)n1 (centres unmarked),2.426,5.101
O=C(NCCNc1ncccn1)C1CC(=O)N(Cc2ccccc2)C1 (centres unmarked),-2.401,4.54